Results as given in PubChem BioAssay AID485314 (National Center for Advancing Translational Sciences (NCATS), 2010).
The campaign covered roughly 340,000 compounds. About 4,500 (1.3%) were called active. Inconclusive results, whose numbers are uncertain, are shown with a selection of clear calls. Calls follow the shape of the dose curve; as a rule, active = well fitted inhibition curve with a large enough effect; inconclusive = small, poorly fitted or top-dose-only effect, or another doubt; inactive = no such curve, though single readings can be large or run the other way. Potencies of inconclusive entries are doubtful fits and often do not repeat.

biological target: DNA polymerase beta (Homo sapiens) (UniProt P06746); assay: qHTS Assay for Inhibitors of DNA Polymerase Beta; conditions: Pol beta primer extension/strand displacement, fluorescence kinetic; activity change, negative = inhibition: at 114 µM (top of the series)
Procedure, shortened: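 10 nM enzyme + cpd, 15 min RT; start with substrate 50 nM final; read 0 min and after 10 min RT. Corrected, normalized data; 4-parameter Hill curve fit.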
% is scaled to controls: 0 for no effect and ±100 for the full control effect; potency is read from the fitted curve at half-maximal effect.

Compound	activity change, negative = inhibition	Potency
CCOc1ccc(/C(O)=C2/C(=O)C(=O)N(c3ccccn3)C2c2ccc(Cl)cc2)c(C)c1 (stereo not given)	inconclusive: -40.2% [inhibitor]	
NC(=O)CCCCC(=O)OCCCc1cccs1		inconclusive: 50.1 µM [inhibitor, partial curve]
COc1ccccc1-c1nnc2n1N=C(c1ccc(O)c(O)c1)CS2		active: 3.98 µM
O=c1c2ccccc2nc(/C=C/c2cccnc2)n1Cc1ccccc1		inactive
O=C(NC(Cc1ccccc1)C(=O)O)/C(=C\c1ccco1)NC(=O)c1ccccc1 (stereo not given)		active: 39.8 µM
O=C(O)c1cc(Cl)ccc1-c1ccc(/C=C/c2cc(C(F)(F)F)[nH]c(=O)n2)o1		inactive
Cc1cc(NS(=O)(=O)c2ccc(NC(=O)c3cccc(OC(F)F)c3)cc2)nc(C)n1		inconclusive: 89.1 µM [inhibitor, single point]
Cc1ccc[n+](CC(=O)/C=C2\N(C)c3ccccc3C2(C)C)c1		inconclusive: 28.2 µM [inhibitor, full curve]
Cc1cccc(N2CCN(C(=O)C3CCN(S(=O)(=O)Cc4ccccc4)CC3)CC2)c1C		inactive
Cc1cc(-c2ccccc2)nc2cc(C(=O)Nc3ccc(Cl)c(Cl)c3)nn12	inconclusive: -89.6% [inhibitor]	
COc1ccc(Cl)cc1NC(=O)c1c(NCc2cccnc2)sc2c1CCCC2		inactive
COc1ccc(NC(=O)CCCCCN2C(=O)c3cccc([N+](=O)[O-])c3C2=O)c(OC)c1		inconclusive: 12.6 µM [inhibitor, partial curve, poor fit]
Nc1cc(-c2nn[nH]n2)ccc1F		inactive
C=CCN1c2ccccc2[C@]23C[C@@H](C(=O)OC)N(C(=O)c4cccs4)C2=NC(C(=O)OC)=C(C(=O)OC)[C@H]13		inactive
C/C(CC(C)C)=N\NS(=O)(=O)c1ccc(C)c([N+](=O)[O-])c1		inconclusive: 0.794 µM [inhibitor, partial curve, poor fit]
CSc1ccc(CCNS(=O)(=O)c2cc(-c3cc(C)no3)ccc2C)cc1		inconclusive: 89.1 µM [inhibitor, single point]
Cc1nnc(N2C(=O)C(=O)/C(=C(/O)c3ccc4c(c3)OCCO4)C2c2ccc([N+](=O)[O-])cc2)s1 (stereo not given)		inconclusive: 0.562 µM [inhibitor, full curve]
Cc1ccc(OCC(=O)Nc2ccc(NC(=O)c3ccco3)cc2)c(C)c1		active: 28.2 µM
CCN(CC)S(=O)(=O)c1ccc(OC)c(NC(=O)CSc2cc(C)ccc2C)c1		inactive
COc1cccc(N2CCN(S(=O)(=O)c3cc4c(cc3Cl)NC(=O)CO4)CC2)c1		inconclusive: 25.1 µM [inhibitor, full curve]
O=C(NCc1ccccc1Cl)C(=O)c1c[nH]c2ccccc12		inconclusive: 17.8 µM [inhibitor, partial curve]
CC(C)=C1SC(N2CCN(c3ccc(Cl)cc3)CC2)=NC1=O		inconclusive: 44.7 µM [inhibitor, partial curve]
Cc1c(/C=C2\SC(=Nc3cccc(C(=O)O)c3)NC2=O)c2ccccc2n1C	inconclusive: -119% [inhibitor]	
Cc1cc(=O)n2nc(N3CCCC(C(=O)N4CCOCC4)C3)sc2n1 (stereo not given)		inconclusive: 100 µM [inhibitor, single point]

Compound	activity change, negative = inhibition	Potency
Cc1cccc(C(=O)n2nc(-c3ccco3)nc2NCc2ccccc2)c1		inactive
CCC1=NN2C(=N)/C(=C/c3ccc(OS(=O)(=O)c4ccccc4)cc3)C(=O)N=C2S1		inconclusive: 89.1 µM [inhibitor, single point]
Cc1cccc(Nc2nc(-c3ccc(O)c(O)c3)cs2)n1		inconclusive: 12.6 µM [inhibitor, full curve]
COCCCNc1oc(-c2ccc(COc3ccccc3C)o2)nc1C#N		inactive
COc1cccc(Cn2c(=O)n(-c3cc(C)cc(C)c3)c(=O)c3oc4ccccc4c32)c1		inconclusive: 89.1 µM [inhibitor, single point]
COc1ccc(OC)c(NC(=O)c2cc3n(n2)C(C(F)(F)F)CC(c2ccc4c(c2)OCO4)N3)c1 (stereo not given)		inconclusive: 35.5 µM [inhibitor, partial curve, poor fit]
CC1CCCN(c2c([N+](=O)[O-])c(=O)oc3ccccc23)C1 (stereo not given)		inconclusive: 89.1 µM [inhibitor, single point]
COc1cccc(OCCn2c(-c3ccc(Cl)cc3)nc3ccccc3c2=O)c1		inconclusive: 0.562 µM [inhibitor, single point]
Cc1c(Cl)cccc1-c1ccc(C(=O)Nc2ccc3oc(-c4cccnc4)nc3c2)o1	inconclusive: -37% [inhibitor]	
Cc1cc(C)nc(Sc2ccc([N+](=O)[O-])cc2[N+](=O)[O-])n1		inactive
CCc1ccccc1NC(=O)Cn1cc(C(=O)c2ccncc2)c(=O)c2cc(C)ccc21		inconclusive: 89.1 µM [inhibitor, single point]
COc1cc(C(=O)N/N=C/c2cc([N+](=O)[O-])cs2)cc(OC)c1OC		inactive
O=C(N/N=C\c1cn[nH]c1-c1ccccc1)c1ccc([N+](=O)[O-])cc1		inconclusive: 89.1 µM [inhibitor, single point]
N#CC(C#N)=C1C=CC=CN1/C(=C\c1ccco1)C(=O)c1ccc(Cl)cc1		inactive
Cc1nnc(Nc2ccc(Cl)cc2)s1		inactive
O=C(Nc1cccc(Cl)c1)c1cc(-c2ccco2)on1		inconclusive: 100 µM [inhibitor, single point]
CC(C)C(=O)NCCSc1c[nH]c2ccccc12		inconclusive: 5.01 µM [inhibitor, full curve, poor fit]
O=C(NC(=S)Nc1ccccc1N1CCOCC1)c1ccc(-c2cccc(Cl)c2)o1		inconclusive: 5.01 µM [inhibitor, single point]
CCc1ccc(C2=CC(c3cccc(OC)c3OC)n3c(nc4ccccc43)N2)cc1 (stereo not given)		inconclusive: 89.1 µM [inhibitor, single point]
O=C(NCCCN1CCOCC1)c1cnccn1		inactive
COc1ccc(N2CCN(CCC(=O)c3ccc4ccccc4c3)CC2)cc1		inconclusive: 89.1 µM [inhibitor, single point]
CN1CCN(CCCNC(=O)c2cc3c(-c4ccc(Cl)cc4)nn(C)c3s2)CC1		inconclusive: 15.8 µM [inhibitor, full curve]
Cc1cccc(CC2S/C(=N/N=C/c3ccco3)N(c3ccccc3)C2=O)c1 (stereo not given)		active: 35.5 µM
CCC1=NN2C(=N)/C(=C/c3ccc(OS(=O)(=O)c4ccc(C)cc4)c(OC)c3)C(=O)N=C2S1		inconclusive: 0.316 µM [inhibitor, full curve, poor fit]

Compound	activity change, negative = inhibition	Potency
Cc1ccc2nc3sc(C(=O)Nc4ccc(F)cc4)cc3cc2c1		active: 2.51 µM
COC(=O)c1ccc(NC(=O)C(C)N2Cc3ccccc3C2=O)cc1 (stereo not given)		inactive
CN(CCCC(=O)NC1CC(C)(C)NC(C)(C)C1)S(=O)(=O)c1ccc([N+](=O)[O-])cc1		inconclusive: 0.316 µM [inhibitor, full curve, poor fit]
Cc1cc2nc3c(=O)n(Cc4ccccc4)c(=O)[nH]c3nc2cc1N		inconclusive: 39.8 µM [inhibitor, partial curve, poor fit]
CCOc1ccc(C(=O)N/N=C/c2cc([N+](=O)[O-])cs2)cc1		active: 14.1 µM
Cc1ccc(/C=N/NC(=O)c2cc(-c3ccc(C)o3)[nH]n2)cc1		inconclusive: 56.2 µM [inhibitor, partial curve, poor fit]
COCc1cc(=O)[nH]c(Nc2nc3ccccc3o2)n1		inactive
CC(C)(C)c1ccc(OCCNC(=S)Nc2ccccc2)cc1		inactive
COc1cc2cc3c(N)c(C(=O)NCc4ccco4)sc3nc2cc1OC		inconclusive: 14.1 µM [inhibitor, full curve]
COc1cccc(/C=N/Nc2cc(N3CCOCC3)ncn2)c1O		inactive
S=C(Nc1ccccc1Cl)N1CCCC(c2ccccc2)=N1		inconclusive: 3.98 µM [inhibitor, single point]
CCCCN(C)c1nc(-c2ccco2)c2c(c1C#N)CC(C)(C)OC2		inconclusive: 39.8 µM [inhibitor, single point]
S=c1[nH]nc(COc2ccccc2)n1/N=C/C(Cl)=C/c1ccccc1		inconclusive: 89.1 µM [inhibitor, single point]
O=C(CCn1nnc2ccccc21)Nc1nnc(Cc2ccc(F)cc2)s1		inconclusive: 3.98 µM [inhibitor, single point]
Cc1cccn2c(=O)c3cc(C(=O)NCc4ccco4)c(=N)n(C4CCCC4)c3nc12		inconclusive: 1.58 µM [inhibitor, full curve]
O=C(COc1ccc2ccccc2c1)NNC(=O)Cc1ccccc1		inconclusive: 39.8 µM [inhibitor, partial curve]
CC(C)c1ccc(/C=N/NC(=O)c2ccccc2Cl)cc1		inconclusive: 79.4 µM [inhibitor, single point]
CCCCOc1ccc(C(=O)N/N=C/c2ccc(OCCN3CCCCC3)c(OC)c2)cc1		active: 15.8 µM
Nc1scc2c(C(=O)N/N=C/c3ccc(Cl)cc3)nn(-c3ccccc3)c(=O)c12		inactive
CCC(c1nnc(SCc2nc3ccccc3s2)n1Cc1ccccc1)N(C)C (stereo not given)		inactive
O=C(O)CN1C(=O)/C(=C\c2ccccc2OCc2ccc(Cl)cc2Cl)SC1=S		active: 20 µM
O=C(Nc1cccc(F)c1)C1CCN(c2nc3ccccc3nc2C(F)(F)F)CC1		inactive
